Measurements as given in PubChem BioAssay AID1794844 (National Center for Advancing Translational Sciences (NCATS), 2023).
The campaign covered roughly 2,800 compounds. Fewer than 10 were called active. Another 7% or so got no clear call; they are omitted. The call rests on the fitted dose curve; in most records, active means well fitted inhibition curve with a large enough effect; inconclusive means small, poorly fitted or top-dose-only effect; inactive means no such curve, though single readings can be large or run the other way. Some of the results follow.

Protein sequences, listed by entry. Tags and fused reporters are not part of them. Lines headed by an entry give the natural chain unless they say otherwise; changes in a name come on top.
UniProt C7C422: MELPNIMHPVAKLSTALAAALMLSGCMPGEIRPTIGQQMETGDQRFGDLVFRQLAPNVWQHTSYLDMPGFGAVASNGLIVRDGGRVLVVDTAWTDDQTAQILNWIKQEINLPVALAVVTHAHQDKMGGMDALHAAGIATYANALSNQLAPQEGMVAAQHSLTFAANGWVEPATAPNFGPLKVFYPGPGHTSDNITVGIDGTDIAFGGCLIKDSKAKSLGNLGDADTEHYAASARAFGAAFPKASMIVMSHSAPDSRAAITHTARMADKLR

Target: Metallo-beta-lactamase type 2 (Klebsiella pneumoniae) (UniProt C7C422)
Assay: qHTS to identify inhibitors of the New Delhi Metallo-beta-lactamase (NDM): Nitrocefin screen against the machine-based learning selections. Further: % of control where 0% means no effect.
Settings: NDM-1 enzyme, nitrocefin hydrolysis, absorbance 485 nm; activity, negative = inhibition: at the top concentration
Method in brief: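 NDM-1 (2 nM final) in 50 mM HEPES pH 7.0, 1 uM Zn2SO4, 0.01% Tween20 was preincubated with compounds for >30 min. Nitrocefin (16.7 uM final) was read at 485 nm after 15 min, and meropenem (50 uM final) at 300 nm after 30 min.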

activity, negative = inhibition, inactive:
CCc1cc(N2CCOC(c3ccc4cc(OC)ccc4c3)C2)nc(C)n1 (stereo not drawn) -9.13%
CN(Cc1cc(C[C@@H]2C[C@H](NC(=O)COc3ccccc3)C2(C)C)no1)c1ccccc1 -1.77% [at 57.5 µM]
CCCC1=Nc2cc(C(=O)NCCc3ccc(OC)c(OC)c3)ccc2Sc2ccccc21 3.35%
CN(C)c1ccc(NC(=S)N[C@H]2CO[C@H]3[C@@H]2OC[C@H]3OC(=O)Nc2cccc3ccccc23)cc1 5.22%
Cc1noc2c(-c3cccc(CO)c3)cc(-c3ccc(F)cc3)nc12 296% [at 57.5 µM]
CCOCc1nc(C2CCCN(C(=O)c3ccc(C)cc3)C2)no1 (stereo not drawn) 2.9%
C=CCN(Cc1cnc(-c2cccc(C)c2)nc1)Cc1ccccn1 -4.13%
CC(C)C1c2nccn2CCCN1C(=O)c1ccc(Cn2cncn2)o1 (stereo not drawn) -2.21%
Cc1ccc2[nH]c(CCCn3cc(-c4nccn4C)nn3)nc2c1C -10.3%
Cc1ccc(S(=O)(=O)Cc2noc([C@@H]3C[C@@H](O)CN3Cc3ccc(S(C)(=O)=O)cc3)n2)cc1 1.37%
CNS(=O)(=O)c1ccc(C2CC(=O)Nc3cc(O)c(OC)cc32)cc1 (stereo not drawn) -2.45%
Cc1ccc2c(C)c(C(=O)N3CC(OCc4ccccc4F)C3)oc2c1 3.3%
O=C1Nc2ccccc2CC12CCN(Cc1cccnc1)CC2 2.71% [at 57.5 µM]
CC(=O)N[C@@H]1C[C@H](Cc2ccccc2)O[C@H](c2c(C)nc3sccn23)C1 8.09%
CC(C(=O)N1CCCC1)N1CCC2(CCC(=O)N(CCO)C2)CC1 (stereo not drawn) -9%
COc1ccc(CN2C(=O)COC[C@@H]2[C@H](O)c2ccc(NC(=O)CC(C)(C)C)cc2)cc1 -1.63%
CCN1C(=O)CCc2cc(NC(=O)c3ccc(C(C)C)cc3)ccc21 -0.776%
NC(=O)c1nc(CNC(=O)CC(c2ccccc2)c2cccc(Cl)c2)no1 (stereo not drawn) 8.35%
OCc1ccc(CN2C[C@H](O)C[C@H]2c2nc(-c3ccc(F)cc3)no2)o1 -19.1% [at 57.5 µM]
COc1ccc(NC(=O)N[C@H]2CO[C@H]3[C@@H]2OC[C@@H]3n2nnnc2-c2ccc3c(c2)OCO3)cc1 -0.56%
COc1cccc(NC(=O)CCc2ccc3c(c2)CN(S(C)(=O)=O)CCO3)c1 -4.72%
COC[C@H]1C[C@@H](NC(=O)c2cc(C(C)(C)C)oc2C)[C@H](O)[C@@H]1O -10.4% [at 57.5 µM]
Cc1ncsc1C(=O)N1CCCC(c2ccc(C(=O)O)cc2)C1 (stereo not drawn) -5.21%
NC(=O)CN1CCC2(CC1)CCN(C(=O)Cc1cnc[nH]1)CC2CO (stereo not drawn) 0.625%
O=C(COc1ccccc1)N[C@H]1CO[C@H]2[C@@H]1OC[C@@H]2n1nnnc1Oc1ccc2c(c1)OCO2 -1.96%
O=C(O)c1ccnc(-c2ccnc(NCCCN3CCCC(O)C3)n2)c1 (stereo not drawn) -7.43%
OCC#Cc1ccc(CN2CCC3(CCNCC3)C2)cc1 -12.7%
COc1ccc(-c2cn3c(n2)CO[C@@H](CNCc2ccc(Cl)cc2)C3)cc1 0.106% [at 57.5 µM]
COc1ccc(-c2cnc3[nH]cc(CC(=O)Nc4ccncc4)c3c2)cc1 42.4% [at 57.5 µM]
O=C(NCc1ccccc1)O[C@H]1COCCN(c2nc3ccccc3o2)C1 -7.44% [at 57.5 µM]
O=C(COc1ccccc1Cl)N1CCCC(O)(CN2CCCC2)C1 (stereo not drawn) 0.384%
O=C(Cn1nccn1)NC1CC(c2cc(N3CCC(O)C3)ncn2)C1 (stereo not drawn) -4.11%
O=C1CCCCC(CNC(=O)c2cc(F)ccc2F)N1 (stereo not drawn) 5.23%
CC(=O)N[C@H]1CC[C@]2(C)CC[C@@H](C(C)C(=O)NC3CCCC3)[C@H](O)[C@H]2[C@@H]1C (stereo partly drawn) -8.9% [at 57.5 µM]
CCCCNC(=O)c1cccc(CN2C(=O)CC(c3ccccc3C)C(C(=O)OCC)=C2C)c1 (stereo not drawn) 5.52%
CCCN1C(=O)Cc2ccccc2C1C(=O)NCc1cccc(C)c1 (stereo not drawn) 2.07%
COc1ccc(CN2C(=O)[C@@H]3C[C@@H](O)CN3C3(CN(C4CCC4)C3)C2=O)cc1 14.3% [at 57.5 µM]
COc1ccc(C(=O)N[C@H]2CO[C@H]3[C@@H]2OC[C@@H]3n2cc(CN(C)Cc3ccccc3)nn2)cc1 -0.996%
CC1(C(=O)NCCCn2ccnc2)CCCc2cnc(Nc3ccccc3)nc21 (stereo not drawn) -5.13% [at 57.5 µM]
NC(=O)[C@H](Cc1ccc(O)cc1)NC(=O)C1=C[C@@H](NC(=O)Nc2ccc(OC(F)(F)F)cc2)[C@@H](O)[C@H](O)C1 3.87%
CN1C[C@@H](NS(=O)(=O)c2ccc(Cl)cc2)C[C@H]1c1nc(-c2ccc(F)cc2)no1 -10.1%
CC(C)(C)c1ccc(C(=O)Nc2nc3c(s2)C[C@@H]2[C@](C)(CO)[C@H](O)CC[C@@]2(C)[C@@H]3CC(=O)NC2CC2)cc1 -10.8%
O=C1Cc2c(-c3cccc4ccccc34)n[nH]c2CN1CCc1ccncc1 0.804% [at 57.5 µM]
CC(=O)NC[C@@H]1C=C(C)[C@H](CC(=O)N2CCCC2)C[C@H]1C(C)C 1.44% [at 57.5 µM]
COc1ccc(CN(Cc2ccc(OC)cc2)[C@@H]2CO[C@H](CNC(=O)CC(C)(C)C)[C@H]2O)cc1 1.54%
CC1(C)C[C@H](NC(=O)c2ccccc2)[C@@]2(CCC(=O)NCc3cccnc3)CC[C@](C)(O)C[C@@H]12 -5.46%
CCC(NC(=O)c1cc(Cn2ccc3ccccc32)[nH]n1)c1ncccc1C (stereo not drawn) -0.46%
O=C([C@H]1C[C@@H](O)[C@H](O)[C@@H]2N=C(Nc3ccc(Cl)cc3)S[C@@H]21)N1CCOCC1 -0.866% [at 57.5 µM]
CC(C)(O)C#Cc1ccc(C(=O)N2CCC(O)(c3ccccn3)CC2)cc1 -4.87%
CN1C[C@H](C(=O)NCc2ccccc2)C[C@H]1c1cccc(C(F)(F)F)c1 7.22% [at 57.5 µM]
COc1cc(CNC(=O)CCC2CCN(S(=O)(=O)c3ccccc3)CC2)cc(OC)c1 -10.9%
COCCNc1ncccc1-c1cc(-c2ccccc2)nc2c(C)noc12 2.72% [at 57.5 µM]
CCCOc1cc(C)c2c(c1C)C[C@H]([C@H](C)C(=O)NCCOC)CC2 -7.25% [at 57.5 µM]
COc1ccccc1-c1ccnc(N[C@H]2CO[C@H]3[C@@H]2OC[C@@H]3NS(=O)(=O)c2ccc3ccccc3c2)n1 231%
COc1ccc(CN2C(=O)[C@@H]3C[C@@H](CN3CC3CC3)Oc3ccccc32)cc1 -2.91% [at 57.5 µM]
COCCN[C@@H]1C[C@@H]2c3[nH]c4ccccc4c3C[C@@H](C(=O)OC)N2[C@H](c2ccc(C(C)C)cc2)C1 1.56%
CC(C)CCNC1(Cc2cc(CN3CCOCC3)on2)COC1 15.9% [at 57.5 µM]
COc1ccc(C(=O)N2CCc3nc(N)nc(N4CCCC4)c3CC2)o1 -14%

Molecules listed so far containing a tert-butyl group, in the order listed:
activity, negative = inhibition, inactive:
COc1ccc(CN2C(=O)COC[C@@H]2[C@H](O)c2ccc(NC(=O)CC(C)(C)C)cc2)cc1 -1.63%
COC[C@H]1C[C@@H](NC(=O)c2cc(C(C)(C)C)oc2C)[C@H](O)[C@@H]1O -10.4% [at 57.5 µM]
CC(C)(C)c1ccc(C(=O)Nc2nc3c(s2)C[C@@H]2[C@](C)(CO)[C@H](O)CC[C@@]2(C)[C@@H]3CC(=O)NC2CC2)cc1 -10.8%
COc1ccc(CN(Cc2ccc(OC)cc2)[C@@H]2CO[C@H](CNC(=O)CC(C)(C)C)[C@H]2O)cc1 1.54%
